{"source": "PubChem BioAssay AID504774, Drosophila RNAi Screening Center – 2011", "test": "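Fly genes whose loss alters survival after alkylation damage to DNA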 (primary screen)", "cells": "Drosophila Kc167 cells", "reagent": "long dsRNA against Drosophila genes, about 0.25 µg dsRNA per well", "time to read-out": "about 6 days: 3 days knock-down, then 3 days with or without MMS", "conditions": "methyl methanesulphonate 0.004% (w/v) for 3 days after knock-down", "detection": "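Viability in wells given MMS, read as ATP luminescence, normalised by quantiles plate by plate and averaged across replicates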", "direction": "mean viability with MMS: higher = more surviving cells after MMS", "note": "The screen tested about 23,000 reagents; shown is a random part of those that have a named target and a result. 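Values are quantile-normalised luminescence on an arbitrary scale; higher means more cells surviving MMS.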 Further read-outs or replicates are left out here."}
{"Gene":"Pex3","dsRNA":"DRSC10731","mean viability with MMS":3.57e6}
{"Gene":"CG15880","dsRNA":"DRSC00474","mean viability with MMS":3.65e6}
{"Gene":"ClpX","dsRNA":"DRSC15592","mean viability with MMS":3.36e6}
{"Gene":"AcCoAS","dsRNA":"DRSC11477","mean viability with MMS":3.51e6}
{"Gene":"AcCoAS","dsRNA":"DRSC11603","mean viability with MMS":3.37e6}
{"Gene":"AcCoAS","dsRNA":"DRSC22850","mean viability with MMS":3.75e6}
{"Gene":"Polr3B","dsRNA":"DRSC07536","mean viability with MMS":3.28e6}
{"Gene":"Had2","dsRNA":"DRSC05971","mean viability with MMS":3.55e6}
{"Gene":"CG2003","dsRNA":"DRSC15411","mean viability with MMS":3.60e6}
{"Gene":"CG11905","dsRNA":"DRSC09863","mean viability with MMS":3.71e6}
{"Gene":"CG13083","dsRNA":"DRSC02187","mean viability with MMS":3.48e6}
{"Gene":"ppk19","dsRNA":"DRSC15321","mean viability with MMS":3.94e6}
{"Gene":"Ets96B","dsRNA":"DRSC16127","mean viability with MMS":3.45e6}
{"Gene":"CG14634","dsRNA":"DRSC17944","mean viability with MMS":3.74e6}
{"Gene":"Smyd4-3","dsRNA":"DRSC07041","mean viability with MMS":3.73e6}
{"Gene":"CG3277","dsRNA":"DRSC00588","mean viability with MMS":3.75e6}
{"Gene":"CG13689","dsRNA":"DRSC00358","mean viability with MMS":3.48e6}
{"Gene":"mTTF","dsRNA":"DRSC01909","mean viability with MMS":3.54e6}
{"Gene":"Uros1","dsRNA":"DRSC18191","mean viability with MMS":3.68e6}
{"Gene":"CG32313","dsRNA":"DRSC21450","mean viability with MMS":3.56e6}
{"Gene":"crb","dsRNA":"DRSC16927","mean viability with MMS":3.31e6}
{"Gene":"betaTub97EF","dsRNA":"DRSC15666","mean viability with MMS":3.52e6}
{"Gene":"betaTub97EF","dsRNA":"DRSC15667","mean viability with MMS":3.62e6}
{"Gene":"betaTub97EF","dsRNA":"DRSC15668","mean viability with MMS":3.61e6}
{"Gene":"CG3408","dsRNA":"DRSC10360","mean viability with MMS":3.63e6}
{"Gene":"Gr98d","dsRNA":"DRSC14571","mean viability with MMS":3.54e6}
{"Gene":"CG14191","dsRNA":"DRSC19546","mean viability with MMS":3.69e6}
{"Gene":"CG8927","dsRNA":"DRSC16458","mean viability with MMS":3.50e6}
{"Gene":"klhl10","dsRNA":"DRSC05274","mean viability with MMS":3.45e6}
{"Gene":"klhl10","dsRNA":"DRSC19171","mean viability with MMS":3.54e6}
{"Gene":"klhl10","dsRNA":"DRSC20750","mean viability with MMS":3.48e6}
{"Gene":"klhl10","dsRNA":"DRSC20925","mean viability with MMS":3.48e6}
{"Gene":"Dhfr","dsRNA":"DRSC16646","mean viability with MMS":3.30e6}
{"Gene":"CG14515","dsRNA":"DRSC14867","mean viability with MMS":3.51e6}
{"Gene":"CG42397","dsRNA":"DRSC09147","mean viability with MMS":3.56e6}

3 entries from above, set out differently:
Gene,dsRNA,mean viability with MMS
mTTF,DRSC01909,3.54e6
Uros1,DRSC18191,3.68e6
CG32313,DRSC21450,3.56e6
